# Laboratory results as given in PubChem BioAssay (EPA / NIEHS).
# Amino acid sequences for entries named in this document (tags omitted). A change or cut given only in a name is not applied to a line headed by its entry.
# UniProt O97775: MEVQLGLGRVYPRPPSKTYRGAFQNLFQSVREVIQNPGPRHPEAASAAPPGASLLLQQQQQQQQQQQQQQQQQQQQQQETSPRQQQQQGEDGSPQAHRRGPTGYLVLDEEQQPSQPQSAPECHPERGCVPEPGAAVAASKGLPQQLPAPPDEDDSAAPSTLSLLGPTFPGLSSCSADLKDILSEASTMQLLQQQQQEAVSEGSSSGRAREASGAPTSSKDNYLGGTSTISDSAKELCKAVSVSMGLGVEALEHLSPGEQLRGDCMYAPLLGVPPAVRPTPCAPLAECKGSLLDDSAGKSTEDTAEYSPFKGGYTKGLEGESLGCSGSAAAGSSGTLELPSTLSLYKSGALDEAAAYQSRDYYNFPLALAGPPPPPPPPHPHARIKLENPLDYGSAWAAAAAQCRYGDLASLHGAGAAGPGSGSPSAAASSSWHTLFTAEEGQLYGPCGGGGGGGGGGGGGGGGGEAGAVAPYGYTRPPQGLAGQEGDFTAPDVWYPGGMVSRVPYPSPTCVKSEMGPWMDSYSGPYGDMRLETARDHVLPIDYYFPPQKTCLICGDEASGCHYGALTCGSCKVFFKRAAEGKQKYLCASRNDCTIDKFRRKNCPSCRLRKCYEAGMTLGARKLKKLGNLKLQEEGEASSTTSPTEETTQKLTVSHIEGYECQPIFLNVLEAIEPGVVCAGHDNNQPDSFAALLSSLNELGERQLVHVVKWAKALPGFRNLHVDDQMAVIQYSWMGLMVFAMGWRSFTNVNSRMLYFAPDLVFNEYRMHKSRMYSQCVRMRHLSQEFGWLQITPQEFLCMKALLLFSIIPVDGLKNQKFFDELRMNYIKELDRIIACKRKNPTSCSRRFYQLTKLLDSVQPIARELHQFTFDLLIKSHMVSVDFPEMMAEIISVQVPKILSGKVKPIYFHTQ
# UniProt P22734: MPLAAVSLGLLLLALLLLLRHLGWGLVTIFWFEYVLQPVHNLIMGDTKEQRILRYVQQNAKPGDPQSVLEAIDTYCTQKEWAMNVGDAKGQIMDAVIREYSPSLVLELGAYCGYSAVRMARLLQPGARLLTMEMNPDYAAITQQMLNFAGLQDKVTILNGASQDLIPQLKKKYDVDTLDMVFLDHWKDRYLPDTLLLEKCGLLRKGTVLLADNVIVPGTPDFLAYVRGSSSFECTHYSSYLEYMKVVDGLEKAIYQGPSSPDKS
# UniProt P08173, whole entry, looked up: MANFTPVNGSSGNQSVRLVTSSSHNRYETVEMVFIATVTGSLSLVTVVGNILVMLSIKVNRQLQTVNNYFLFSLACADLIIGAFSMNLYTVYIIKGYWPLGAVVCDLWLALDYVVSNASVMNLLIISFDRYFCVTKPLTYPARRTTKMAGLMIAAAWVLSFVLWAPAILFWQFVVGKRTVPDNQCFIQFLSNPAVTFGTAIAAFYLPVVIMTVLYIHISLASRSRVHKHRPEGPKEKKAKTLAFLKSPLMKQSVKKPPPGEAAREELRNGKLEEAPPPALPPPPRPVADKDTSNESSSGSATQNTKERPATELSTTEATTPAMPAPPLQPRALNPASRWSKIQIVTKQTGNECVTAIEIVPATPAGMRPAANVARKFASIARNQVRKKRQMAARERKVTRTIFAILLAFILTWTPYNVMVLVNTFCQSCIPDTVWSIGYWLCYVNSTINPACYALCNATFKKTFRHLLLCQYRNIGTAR
# UniProt Q92731, whole entry, looked up: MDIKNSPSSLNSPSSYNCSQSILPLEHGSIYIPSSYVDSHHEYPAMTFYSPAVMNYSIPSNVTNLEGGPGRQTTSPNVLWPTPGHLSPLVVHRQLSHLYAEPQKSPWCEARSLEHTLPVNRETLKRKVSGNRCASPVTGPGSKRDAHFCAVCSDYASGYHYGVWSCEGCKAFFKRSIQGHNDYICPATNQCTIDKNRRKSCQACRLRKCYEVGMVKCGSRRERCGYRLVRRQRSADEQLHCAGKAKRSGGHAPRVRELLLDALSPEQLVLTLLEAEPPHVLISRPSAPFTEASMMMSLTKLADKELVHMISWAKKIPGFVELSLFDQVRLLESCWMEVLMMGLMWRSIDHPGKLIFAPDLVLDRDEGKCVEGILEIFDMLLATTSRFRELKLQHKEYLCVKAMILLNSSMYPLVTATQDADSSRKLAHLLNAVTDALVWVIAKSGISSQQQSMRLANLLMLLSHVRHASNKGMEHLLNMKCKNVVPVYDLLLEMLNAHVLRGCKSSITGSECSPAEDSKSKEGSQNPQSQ
# UniProt P28646: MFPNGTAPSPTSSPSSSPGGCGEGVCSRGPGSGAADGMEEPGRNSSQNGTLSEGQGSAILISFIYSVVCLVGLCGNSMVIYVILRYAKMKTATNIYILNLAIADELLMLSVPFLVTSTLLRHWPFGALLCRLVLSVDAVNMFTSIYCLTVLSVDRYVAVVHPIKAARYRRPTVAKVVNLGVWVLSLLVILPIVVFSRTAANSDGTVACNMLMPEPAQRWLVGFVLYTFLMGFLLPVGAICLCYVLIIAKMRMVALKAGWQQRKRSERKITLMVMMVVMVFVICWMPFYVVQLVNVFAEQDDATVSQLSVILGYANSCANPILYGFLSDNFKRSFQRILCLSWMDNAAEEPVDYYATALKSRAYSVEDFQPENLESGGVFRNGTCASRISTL
# UniProt P20813: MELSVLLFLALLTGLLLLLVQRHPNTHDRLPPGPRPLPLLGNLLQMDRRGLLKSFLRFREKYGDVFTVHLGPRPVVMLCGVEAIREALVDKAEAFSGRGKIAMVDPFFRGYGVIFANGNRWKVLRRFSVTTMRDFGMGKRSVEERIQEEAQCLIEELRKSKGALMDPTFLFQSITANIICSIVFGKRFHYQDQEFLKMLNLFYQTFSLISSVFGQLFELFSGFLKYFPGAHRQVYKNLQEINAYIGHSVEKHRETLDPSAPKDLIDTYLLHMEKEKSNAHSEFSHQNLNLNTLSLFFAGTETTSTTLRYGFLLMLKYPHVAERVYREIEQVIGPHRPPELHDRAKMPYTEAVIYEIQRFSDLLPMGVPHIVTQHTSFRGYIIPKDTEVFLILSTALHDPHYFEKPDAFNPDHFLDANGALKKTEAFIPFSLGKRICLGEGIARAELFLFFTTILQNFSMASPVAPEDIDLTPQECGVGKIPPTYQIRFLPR
# UniProt P57717: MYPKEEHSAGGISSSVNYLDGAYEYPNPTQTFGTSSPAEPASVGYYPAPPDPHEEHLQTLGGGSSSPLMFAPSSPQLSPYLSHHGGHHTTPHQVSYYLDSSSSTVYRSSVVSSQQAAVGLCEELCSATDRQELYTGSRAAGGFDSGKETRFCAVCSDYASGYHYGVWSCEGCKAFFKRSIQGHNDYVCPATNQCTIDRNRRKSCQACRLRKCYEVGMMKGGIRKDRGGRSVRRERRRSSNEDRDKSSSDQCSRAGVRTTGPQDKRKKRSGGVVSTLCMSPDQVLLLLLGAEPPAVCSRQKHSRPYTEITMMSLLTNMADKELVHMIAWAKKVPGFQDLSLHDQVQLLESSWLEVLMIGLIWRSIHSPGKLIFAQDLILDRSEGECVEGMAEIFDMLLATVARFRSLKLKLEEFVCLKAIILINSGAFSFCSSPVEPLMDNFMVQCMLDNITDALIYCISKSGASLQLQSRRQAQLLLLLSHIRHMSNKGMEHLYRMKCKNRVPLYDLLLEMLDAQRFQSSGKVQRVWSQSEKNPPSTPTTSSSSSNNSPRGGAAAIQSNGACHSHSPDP
# UniProt P10827: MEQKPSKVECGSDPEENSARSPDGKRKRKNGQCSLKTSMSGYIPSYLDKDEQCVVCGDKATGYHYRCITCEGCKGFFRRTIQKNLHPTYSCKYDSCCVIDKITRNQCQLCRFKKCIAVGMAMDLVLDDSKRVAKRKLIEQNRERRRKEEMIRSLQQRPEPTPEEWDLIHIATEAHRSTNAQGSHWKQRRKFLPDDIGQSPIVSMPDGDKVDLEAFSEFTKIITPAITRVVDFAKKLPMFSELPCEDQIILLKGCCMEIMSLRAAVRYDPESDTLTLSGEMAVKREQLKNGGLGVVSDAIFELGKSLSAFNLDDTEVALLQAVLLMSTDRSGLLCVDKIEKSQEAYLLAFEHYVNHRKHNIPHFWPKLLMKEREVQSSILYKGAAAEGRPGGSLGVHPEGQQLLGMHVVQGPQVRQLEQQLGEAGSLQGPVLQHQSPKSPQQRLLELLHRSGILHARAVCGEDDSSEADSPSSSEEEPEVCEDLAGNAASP
# UniProt P19793: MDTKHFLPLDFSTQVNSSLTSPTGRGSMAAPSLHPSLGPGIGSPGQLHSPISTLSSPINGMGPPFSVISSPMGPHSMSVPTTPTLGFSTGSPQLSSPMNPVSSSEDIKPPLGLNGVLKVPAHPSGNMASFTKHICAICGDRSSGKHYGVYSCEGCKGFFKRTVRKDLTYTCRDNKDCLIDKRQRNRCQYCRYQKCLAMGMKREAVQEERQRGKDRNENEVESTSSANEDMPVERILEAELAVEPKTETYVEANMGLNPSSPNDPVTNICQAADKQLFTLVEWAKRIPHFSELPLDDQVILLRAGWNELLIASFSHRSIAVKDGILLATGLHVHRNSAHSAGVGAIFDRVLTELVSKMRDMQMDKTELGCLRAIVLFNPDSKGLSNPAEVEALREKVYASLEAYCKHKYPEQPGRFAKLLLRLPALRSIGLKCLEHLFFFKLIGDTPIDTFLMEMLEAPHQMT
# UniProt P18031: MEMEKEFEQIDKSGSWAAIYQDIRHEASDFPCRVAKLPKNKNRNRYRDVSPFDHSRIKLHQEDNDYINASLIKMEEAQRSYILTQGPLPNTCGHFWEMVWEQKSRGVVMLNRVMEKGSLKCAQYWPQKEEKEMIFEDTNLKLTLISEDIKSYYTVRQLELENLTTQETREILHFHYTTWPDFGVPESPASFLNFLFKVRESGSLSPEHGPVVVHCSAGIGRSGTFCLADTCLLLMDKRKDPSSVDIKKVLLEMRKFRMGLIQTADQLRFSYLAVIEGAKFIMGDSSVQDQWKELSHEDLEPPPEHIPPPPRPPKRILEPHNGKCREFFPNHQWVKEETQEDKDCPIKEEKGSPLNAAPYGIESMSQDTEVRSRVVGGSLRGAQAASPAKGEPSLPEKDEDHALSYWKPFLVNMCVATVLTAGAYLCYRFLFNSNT
# UniProt Q9NTG7: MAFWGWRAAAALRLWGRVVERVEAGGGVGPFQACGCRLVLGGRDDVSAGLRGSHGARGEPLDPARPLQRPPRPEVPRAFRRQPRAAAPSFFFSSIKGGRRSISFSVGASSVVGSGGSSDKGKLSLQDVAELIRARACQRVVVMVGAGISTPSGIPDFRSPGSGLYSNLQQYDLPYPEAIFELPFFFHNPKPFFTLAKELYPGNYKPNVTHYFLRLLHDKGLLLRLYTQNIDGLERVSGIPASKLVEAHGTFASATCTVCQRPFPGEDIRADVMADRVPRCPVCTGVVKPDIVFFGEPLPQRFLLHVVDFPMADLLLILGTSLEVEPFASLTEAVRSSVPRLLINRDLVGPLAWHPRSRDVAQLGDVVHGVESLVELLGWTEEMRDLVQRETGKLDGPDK
# UniProt P30542, whole entry, looked up: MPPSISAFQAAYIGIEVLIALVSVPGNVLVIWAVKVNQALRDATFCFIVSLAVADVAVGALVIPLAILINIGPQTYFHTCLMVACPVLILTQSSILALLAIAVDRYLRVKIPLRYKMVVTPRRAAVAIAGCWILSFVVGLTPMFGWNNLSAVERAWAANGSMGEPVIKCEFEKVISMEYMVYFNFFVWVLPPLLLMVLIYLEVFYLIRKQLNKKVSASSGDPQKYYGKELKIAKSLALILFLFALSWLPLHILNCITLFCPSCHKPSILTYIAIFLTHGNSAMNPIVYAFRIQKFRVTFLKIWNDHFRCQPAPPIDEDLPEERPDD
# UniProt P18825, whole entry, looked up: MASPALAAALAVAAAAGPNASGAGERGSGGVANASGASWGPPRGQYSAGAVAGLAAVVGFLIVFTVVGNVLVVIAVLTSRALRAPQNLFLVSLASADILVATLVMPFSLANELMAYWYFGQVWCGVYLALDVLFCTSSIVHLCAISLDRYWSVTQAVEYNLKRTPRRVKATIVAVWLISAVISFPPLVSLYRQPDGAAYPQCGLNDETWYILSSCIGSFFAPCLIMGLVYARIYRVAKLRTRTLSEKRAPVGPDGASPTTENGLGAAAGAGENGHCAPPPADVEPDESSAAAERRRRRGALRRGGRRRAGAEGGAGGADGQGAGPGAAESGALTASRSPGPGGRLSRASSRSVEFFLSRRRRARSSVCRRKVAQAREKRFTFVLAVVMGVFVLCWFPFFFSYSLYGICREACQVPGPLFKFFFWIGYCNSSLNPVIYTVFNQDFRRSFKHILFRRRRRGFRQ
# UniProt Q15722: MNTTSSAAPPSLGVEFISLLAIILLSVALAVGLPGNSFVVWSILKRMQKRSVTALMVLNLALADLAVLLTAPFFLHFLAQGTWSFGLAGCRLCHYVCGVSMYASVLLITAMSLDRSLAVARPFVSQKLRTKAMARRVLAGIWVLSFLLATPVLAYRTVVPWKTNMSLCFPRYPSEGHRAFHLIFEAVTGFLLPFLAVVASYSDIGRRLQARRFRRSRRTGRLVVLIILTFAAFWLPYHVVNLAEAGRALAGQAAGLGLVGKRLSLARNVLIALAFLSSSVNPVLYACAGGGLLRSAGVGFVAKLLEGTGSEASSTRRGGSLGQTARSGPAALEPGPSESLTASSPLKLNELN
# Several values for one entry are separate records, joined by “and”; a condition that tells them apart may be missing. Equal values may be shown once. Inconclusive means that the source gave no clear call. Such entries were picked first, then a sample of the others. For some assays here: A potency beside an inconclusive call is a rough fit, not a confirmed value. Activity calls are given as the source filed them. How the source made its calls: active means hit-call score of the fitted dose curve at least 0.9, where 1 is the maximum; inconclusive means response in the unintended direction; inactive means score below 0.9.
# Experiments:
# [1] = molecular target: chimpanzee Androgen Receptor (AR), AR (gene 747460) (UniProt O97775); test: NVS_NR_cAR: NovaScreen (NVS) Nuclear Receptor Binding Assay for chimpanzee Androgen Receptor (AR) (AID 2283346);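 further: radioligand displacement from AR measured by scintillation counting in a cell-free assay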
# In short: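 Cell-free radioligand displacement using receptor protein extracted from Sf9/Sf21 cells; bound radioligand measured by scintillation counting 72 hours after chemical dosing. Loss of signal versus DMSO baseline indicates binding; primary screen single-concentration in duplicate at 25 uM, actives followed in concentration series.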
# [2] = molecular target: rat Catechol-O-Methyl Transferase (COMT), Comt (gene 24267) (UniProt P22734); test: NVS_ENZ_rCOMT: NovaScreen (NVS) Enzymatic Assay for rat Catechol-O-Methyl Transferase (COMT) (AID 2283235)
# In short: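 Cell-free enzyme activity with protein extracted from rat dorsal striatum, measured by HPLC with absorbance detection. Compounds screened at 25 uM in duplicate; actives then run in concentration-response up to 50 uM, loss of signal versus DMSO.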
# [3] = molecular target: human Muscarinic, M4 Receptor, CHRM4 (gene 1132) (UniProt P08173); test: NVS_GPCR_hM4: NovaScreen (NVS) G Protein-Coupled Receptor Assay for human Muscarinic, M4 Receptor (AID 2283274)
# In short: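 Cell-free radioligand displacement using CHO-derived human M4 receptor protein, 1 h after dosing; bound radioactivity by filtration and scintillation counting. Primary screen single 25 uM duplicate, actives followed in concentration series.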
# [4] = molecular target: Glucocorticoid receptor (Homo sapiens) (UniProt P04150); test: NVS_NR_hGR: NovaScreen (NVS) Nuclear Receptor Binding Assay for human Glucocorticoid Receptor (GR) (AID 2283363);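 further: activity is loss of specific radioligand binding signal relative to DMSO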
# In short: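 Cell-free radioligand binding with extracted receptor protein, read by filter-based scintillation counting 16 hours after dosing. Loss of specific signal versus DMSO baseline was scored. Primary screen ran in duplicate at 25 uM; actives were followed up in concentration series.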
# [5] = molecular target: Estrogen receptor beta (Homo sapiens) (UniProt Q92731); test: ATG_hERb_XSP2: Attagene TRANS-FACTORIAL Multi-Species (XSP2) HepG2 Assay for human Estrogen Receptor (ERb) (AID 2283813);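 further: actives raise reporter mRNA above DMSO so AC50 reflects agonist induction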
# In short: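 HepG2 cells transiently transfected with GAL4-UAS reporter units and chimeric human ERb-Gal4, 24 h exposure. Reporter mRNA quantified by RT-PCR with FAM labelling, HpaI digestion and capillary electrophoresis; gain of signal versus DMSO.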
# [6] = test system: frog Estrogen Receptor (ER2), gene 100174814; test: ATG_frER2_XSP2: Attagene TRANS-FACTORIAL Multi-Species (XSP2) HepG2 Assay for frog Estrogen Receptor (ER2) (AID 2283828)
# In short: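 Human liver HepG2, transient MRTU transfection (TRANS format, exogenous NR–Gal4). 24 h cpd exposure. Total RNA → RT → PCR → FAM label → HpaI cut → CE. Positive direction vs DMSO.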
# [7] = molecular target: rat Somatostatin Receptor (SST), Sstr1 (gene 25033) (UniProt P28646); test: NVS_GPCR_rSST: NovaScreen (NVS) G Protein-Coupled Receptor Assay for rat Somatostatin Receptor (SST) (AID 2283314)
# In short: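 Rat forebrain membranes; radioligand displacement read by filter-based scintillation counting 1 h after dosing. Primary screen in duplicate at 25 uM. Actives (e.g., 30% inhibition) were rerun as concentration-response to 50 uM max and fitted against DMSO.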
# [8] = read-out: Cytochrome P450 2B6 (Homo sapiens) (UniProt P20813); test: CLD_CYP2B6_24hr: CellzDirect (CLD) Gene Expression Assay for xenobiotic metabolism (CYP2B6) at 24 hours (AID 2283686)
# In short: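 Primary human hepatocytes dosed daily for two days with fresh solutions, harvested at 24 hours; mRNA induction quantified by qNPA chemiluminescence, gain of signal vs 0.2% DMSO vehicle. Cytotoxicity annotated from phase-contrast morphology.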
# [9] = molecular target: human Vascular Endothelial Growth Factor Receptor 3 (VEGFR3), FLT4 (gene 2324) (UniProt P35916); test: NVS_ENZ_hVEGFR3: NovaScreen (NVS) Enzymatic Assay for human Vascular Endothelial Growth Factor Receptor 3 (VEGFR3) (AID 2283229)
# In short: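 Cell-free recombinant VEGFR3 kinase reaction with fluorescent substrate, read 1 h after dosing by electrophoretic mobility shift separation of substrate and product. Single-concentration duplicate screen at 25 uM, then concentration-response up to 50 uM; loss of activity versus DMSO.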
# [10] = molecular target: zebrafish Estrogen Receptor (ESR1), esr1 (gene 259252) (UniProt P57717); test: ATG_zfER1_XSP1: Attagene TRANS-FACTORIAL Multi-Species (XSP1) HepG2 Assay for zebrafish Estrogen Receptor (ESR1) (AID 2283772)
# In short: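 Readout: fluorescent reporter mRNA, RT-PCR plus FAM labelling, HpaI digest, capillary electrophoresis; gain-of-signal fit vs DMSO. HepG2, transient multi-reporter TRANS (NR-GAL4 chimera), 24 h chemical exposure, 3 nM 6-alpha-fluorotestosterone co-added.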
# [11] = molecular target: Nuclear receptor subfamily 1 group I member 2 (Mus musculus) (UniProt O54915); test: ATG_mPXR_XSP1: Attagene TRANS-FACTORIAL Multi-Species (XSP1) HepG2 Assay for mouse Pregnane X Receptor (PXR) (AID 2283803)
# In short: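 Transiently transfected HepG2 cells expressing a receptor-Gal4 chimera drive a GAL4-UAS reporter; 3 nM 6-alpha-fluorotestosterone included. Reporter mRNA read 24 h post-dose by RT-PCR and capillary electrophoresis; gain of signal relative to DMSO.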
# [12] = molecular target: Nuclear receptor subfamily 1 group I member 2 (Mus musculus) (UniProt O54915); test: ATG_mPXR_XSP2: Attagene TRANS-FACTORIAL Multi-Species (XSP1) HepG2 Assay for mouse Pregnane X Receptor (PXR) (AID 2283831)
# In short: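 Transient HepG2 transfection, multiplexed GAL4-UAS reporters, NR-GAL4 chimeras. 24 h compound exposure. Readout: reporter mRNA, RT-PCR, fluorescent capillary electrophoresis; positive direction vs DMSO baseline.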
# [13] = molecular target: THRA (gene 7067) (UniProt P10827); test: TOX21_TRA_COA_Antagonist_Followup_ratio: Tox21 Thyroid Hormone Receptor alpha Antagonism through Coactivator Recruitment Follow-Up Assay, Ratio (AID 2283953)
# In short: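 This follow-up to the GH3 luciferase screen checks specificity in a cell-free format. It measures SRC-2 coactivator peptide binding to TRα LBD by TR-FRET and scores loss of ratio signal relative to DMSO.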
# [14] = molecular target: Retinoic acid receptor RXR-alpha (Homo sapiens) (UniProt P19793); test: TOX21_TR_RXR_BLA_Antagonist_Followup_ratio: Tox21 Thyroid Hormone Receptor beta Retinoid X Receptor alpha (RXRa) Antagonism Beta-lactamase (BLA) Follow-Up Assay, Ratio (AID 2283972)
# In short: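 Beta-lactamase reporter readout as cleaved/uncleaved substrate ratio (460:530 nm) after 2 h substrate loading at room temperature. GAL4-RXRa bla HEK293T cells were exposed 16 h at 37C to 11-point compound series; loss of signal scored against DMSO baseline.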
# [15] = molecular target: human Protein Tyrosine Phosphatase Non-receptor Type 1 (PTPN1), PTPN1 (gene 5770) (UniProt P18031); test: NVS_ENZ_hPTPN1: NovaScreen (NVS) Enzymatic Assay for human Protein Tyrosine Phosphatase Non-receptor Type 1 (PTPN1) (AID 2283201)
# In short: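 Cell-free fluorogenic-substrate activity assay on recombinant enzyme, read 1.33 h after dosing by fluorescence and electrophoretic mobility shift; loss of signal vs DMSO baseline. Primary screen in duplicate at 25 uM, hits then run in concentration-response up to 50 uM.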
# [16] = molecular target: human Sirtuin 3 (SIRT3), SIRT3 (gene 23410) (UniProt Q9NTG7); test: NVS_ENZ_hSIRT3: NovaScreen (NVS) Enzymatic Assay for human Sirtuin 3 (SIRT3) (AID 2283222)
# In short: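 Cell-free enzyme assay with recombinant protein and fluorescent substrate, product separated by electrophoretic mobility shift; read 1 hour after dosing. Screened in duplicate at 25 uM, then singleton concentration-response up to 50 uM; loss of signal versus DMSO.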
# [17] = molecular target: human Adenosine A1 Receptor (AdoRA1), ADORA1 (gene 134) (UniProt P30542); test: NVS_GPCR_hAdoRA1: NovaScreen (NVS) G Protein-Coupled Receptor Assay for human Adenosine A1 Receptor (AdoRA1) (AID 2283254)
# In short: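 Each chemical is first tested twice at 25 uM, actives later in dilution series, against a radioligand bound to human cortex membranes; after 1 h, filter-retained counts are compared with DMSO controls, lower signal indicating displacement.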
# [18] = molecular target: human Adrenergic, Alpha 2c Receptor (Adra2C), ADRA2C (gene 152) (UniProt P18825); test: NVS_GPCR_hAdra2C: NovaScreen (NVS) G Protein-Coupled Receptor Assay for human Adrenergic, Alpha 2c Receptor (Adra2C) (AID 2283259)
# In short: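 Radioligand binding on Sf9-expressed receptor membranes, 1 h after chemical dosing, filter-based scintillation read-out. Loss of binding fitted positively versus DMSO; primary duplicate screen at 25 uM, actives retested in concentration series.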
# [19] = molecular target: Beta-2 adrenergic receptor (Homo sapiens) (UniProt P07550); test: NVS_GPCR_hAdrb2: NovaScreen (NVS) G Protein-Coupled Receptor Assay for human Adrenergic, Beta 2 Receptor (Adrb2) (AID 2283261)
# In short: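 Filter-based radioligand binding using receptor prepared from CHO cells, 1 h incubation, scintillation counting. Primary screen in duplicate at 25 uM, actives retested in concentration series; loss of binding relative to DMSO.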
# [20] = molecular target: human Leukotriene B4 Receptor 1 (LTB4-BLT1), LTB4R (gene 1241) (UniProt Q15722); test: NVS_GPCR_hLTB4_BLT1: NovaScreen (NVS) G Protein-Coupled Receptor Assay for human Leukotriene B4 Receptor 1 (LTB4-BLT1) (AID 2283271)
# In short: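 Radioligand displacement binding on receptor extracted from human neutrophils, cell-free, 1 h after dosing; filter-based scintillation counting. Primary screen in duplicate at 25 uM, actives retested in concentration-response up to 50 uM; loss of signal versus DMSO.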
compound,measurement,setting,value
CCN(CC)c1ccc(C(=C2C=CC(=[N+](CC)CC)C=C2)c2ccc(S(=O)(=O)O)cc2S(=O)(=O)[O-])cc1,outcome,[1],inactive
CCCCCCCC[Si](OCC)(OCC)OCC,AC50,[2],inconclusive: 25 µM
same,AC50,[3],inconclusive: 5.93 µM
O=C(Oc1ccccc1)c1ccccc1O,AC50,[4],inconclusive: 25 µM
Cc1cc(O)cc(C)c1Cl,AC50,[5],active: 7.77 µM and active: 7.9 µM
same,AC50,[6],active: 29.3 µM and active: 19.5 µM
CC(C)(C)[C@@H](O)[C@@H](Cc1ccc(Cl)cc1)n1cncn1,outcome,[7],inactive
same,AC50,[8],active: 2 µM
C#C[C@]1(O)CC[C@H]2[C@@H]3CCc4cc(O)ccc4[C@H]3CC[C@@]21C,AC50,[9],inconclusive: 0.0601 µM
same,AC50,[10],active: 0.000281 µM
same,AC50,[11],inconclusive: 0.0144 nM
same,AC50,[12],inconclusive: 0.1 µM
same,AC50,[13],inconclusive: 38.3 µM
same,AC50,[14],active: 38.3 µM
Oc1ccc(C(c2ccc(O)cc2)C(Cl)(Cl)Cl)cc1,AC50,[15],inconclusive: 25 µM
same,AC50,[16],active: 19.4 µM
same,outcome,[17],inactive
same,AC50,[18],active: 6.88 µM
same,outcome,[19],inactive
same,outcome,[20],inactive

# An excerpt of these results, bar-delimited:
compound | measurement | setting | value
C#C[C@]1(O)CC[C@H]2[C@@H]3CCc4cc(O)ccc4[C@H]3CC[C@@]21C | AC50 | [9] | inconclusive: 0.0601 µM
Oc1ccc(C(c2ccc(O)cc2)C(Cl)(Cl)Cl)cc1 | outcome | [20] | inactive
